# Data source: PubChem BioAssay AID504808 (Drosophila RNAi Screening Center, 2011)
# Assay: 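Fly genes required to hold E2F transcription in check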 (primary screen)
# System: Drosophila S2 cells
# Reagents: long dsRNA against Drosophila genes
# Detection: 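Dual luciferase plate measurements; E2F-specific signal taken as firefly over Renilla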
# Scale: E2F firefly: higher = more E2F reporter activity; Renilla normaliser: higher = more normaliser reporter signal
# Active means: 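Called active if the normalised E2F reporter went up by over 50%; the cutoff is arbitrary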
# The screen tested about 21,000 reagents; shown is an unselected part of those that have a named target and a result. Of all reagents, 18 (0.084%) got an active call. 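Raw counts without plate normalisation, one of two replicates; the ratio scores behind the calls were not deposited.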 The numbers tell different reagents against one gene apart. Names joined by + are all predicted targets of the reagent. Not stated in the record: the amount of reagent, the time to read-out.
gene,reagent,"E2F firefly, rep 1","Renilla normaliser, rep 1",outcome
AIF (Apoptosis inducing factor),1,83129,3360,inactive
Dhdds (Dehydrodolichyl diphosphate synthase subunit),1,48526,3309,inactive
CG4374,1,97448,5314,inactive
p38a (p38a MAP kinase),1,1.01e5,5042,inactive
prtp (pretaporter),1,72189,688,inactive
CG15443,1,1.76e5,5915,inactive
CG5347,1,1.64e5,6356,inactive
"AspRS-m (Aspartyl-tRNA synthetase, mitochondrial)",1,1.06e5,4265,inactive
Su(z)2 (Suppressor of zeste 2),1,82605,4246,inactive
CG33125,1,1.35e5,5277,inactive
CG6015,1,60834,4486,inactive
CG1750,1,1914,1024,inactive
alpha-Est7 (alpha-Esterase-7),1,57176,3177,inactive
Taf5 (TBP-associated factor 5),1,2394,169,inactive
ema (endosomal maturation defective),1,1.15e5,6363,inactive
boi,1,1.12e5,5451,inactive
boi,2,1.29e5,5656,inactive
Ndae1 (Na[+]-driven anion exchanger 1),1,1.30e5,6174,inactive
Ndae1 (Na[+]-driven anion exchanger 1),2,83918,3697,inactive
Cbs (Cystathionine beta-synthase),1,1.44e5,5115,inactive
CG31482,1,1.38e5,7265,inactive
tay (tay bridge),1,7862,844,inactive
cato (cousin of atonal),1,1.49e5,5290,inactive
CG4734,1,1.10e5,4583,inactive
Rab3GAP1 (RAB3 GTPase activating protein subunit 1),1,1.63e5,5350,inactive
Rab3GAP1 (RAB3 GTPase activating protein subunit 1),2,1.75e5,6327,inactive
Nhe2 (Na[+]/H[+] hydrogen exchanger 2),1,92237,4393,inactive
Nhe2 (Na[+]/H[+] hydrogen exchanger 2),2,85518,4295,inactive
CG13170,1,89251,4394,inactive
CG6178,1,80461,4694,inactive
"Lamtor3 (Late endosomal/lysosomal adaptor, MAPK and MTOR activator 3)",1,1.04e5,4023,inactive
GluClalpha (Glutamate-gated chloride channel subunit alpha),1,1.38e5,7330,inactive
His4:CG33883 + His4:CG33889 + His4:CG33899 + 20 more,1,1.14e5,13452,inactive
CG18063,1,97230,4737,inactive
arm (armadillo),1,1835,1144,inactive
Ndf (Nucleosome-destabilizing factor),1,70034,3333,inactive
pAbp (poly(A) binding protein),1,42004,3023,inactive
Pgk (Phosphoglycerate kinase),1,1.67e5,5783,inactive
CG10702,1,82268,3291,inactive
CG6244,1,1.63e5,7359,inactive
eIF3e (eukaryotic translation initiation factor 3 subunit e),1,1.15e5,8032,inactive
ND-B16.6 (NADH dehydrogenase (ubiquinone) B16.6 subunit),1,45897,3259,inactive
CG9609,1,1.76e5,6018,inactive
mnd (minidiscs),1,1.61e5,8009,inactive
fd59A (forkhead domain 59A),1,73240,3352,inactive
CR14798 (pseudo),1,73997,4162,inactive
gfzf (GST-containing FLYWCH zinc-finger protein),1,1.16e5,170,active
spir (spire),1,1.21e5,5239,inactive
CG10444,1,62298,3533,inactive
Manf (Mesencephalic astrocyte-derived neurotrophic factor),1,65568,3379,inactive
Gr85a (Gustatory receptor 85a),1,78509,4681,inactive
cpa (capping protein alpha),1,80463,3413,inactive
Sap30 (SIN3-associated polypeptide 30),1,2.38e5,6600,inactive
CG1542,1,1594,1196,inactive
Ac3 (Adenylate cyclase 3),1,78961,4023,inactive
Vps37B (Vacuolar protein sorting 37B),1,74675,3538,inactive
Swip-1 (Swiprosin-1),1,90549,3778,inactive
Swip-1 (Swiprosin-1),2,97352,4188,inactive
